These are yes or no findings as the source states them, for the method shown. For some of these results: A result given as binding can be weak or reduced; the word gives no strength.

For 9 molecules, binding results are on record in US20260234247A1.

Assay [1] has as its target cynomolgus LILRB1 protein (cynomolgus). Description: ELISA (FIGS. 3A and 3B).
Assay [2] shares this target. In words: ELISA (FIGS. 3A-3B).
Assay [3] concerns the target cynomolgus LILRB2 overexpressing CHOK1 cell line (cynomolgus). Description: flow cytometry (FIGS. 3C-3E).
Assay [4] deals with Rhesus LILRB1 (NP_001035762.2) protein (rhesus macaque). In words: ELISA on rhesus LILRB1 (NP_001035762.2) protein.
For assay [5], the target named is cynomolgus LILRB2 protein (cynomolgus). In words: Octet, dissociation rate ranking.

B1: hz73D1.v1 (antibody, human IgG4 S228P, kappa, V domains shown)
VH: QVQLVQSGAEVKKPGASVKVSCKASGYTFTDYYINWVRQAPGQGLEWMGNVNPNDGGTTYNQKFKGRVTMTTDTSTSTAYMELRSLRSDDTAVYYCARREIYFYGTIYYYAMDYWGQGTLVTVSS
VL: DIQLTQSPSFLSASVGDRVTITCRASESVDYYGNSFMYWYQQKPGKAPKLLIYFASNLESGVPSRFSGSGSGTEFTLTISSLQPEDFATYYCQQNNEDPWTFGGGTKVEIKR
Turning to B1, the binding result in assay [1] is “binds”; in assay [2], “binds”; in assay [3] it was “binds”; in assay [4], “no binding”.

B2: LK-RB1-37 (antibody, human IgG4 S228P, kappa, V domains shown)
VH: QVQLQQPGAELVKPGASVKLSCKASGYTFTSYWMHWVKQRPGRGPEWIGRIDPNSGYARYNEKFKNKATLTADKPSSTADMHLSSLTSEDSAVYYCTRSFITTAEWFFDVWGTGTTVTVSS
VL: DILLTQSPAILSVSPGERVSFSCRASQSIGTSIHWYQQRRNGSPRLLIKYTSESISGIPSRFSGSGSGTDFTLSINSVESEDIADYYCQQSNSWPHTFGGGTKLELKR
As to B2, in assay [4], the binding entry is given as “no binding”.

B3: LK-RB2-32 (antibody, human IgG4 S228P, kappa, V domains shown)
VH: DVQLQESGPGLVKPSQSLSLTCSVTGYSITSGYYWNWIRQFPGNKLEWMGYISFDGSNHYNPSLRNRISITRDTFKNQFFLKLNSVTTEDTATFYCTRRDYNWFAYWGQGTLVTVSA
VL: DIVLTQSPVTLSVTPGDSVSLSCRASQNINKNLHWYQQRSHESPRLLIKYVSQSISGIPSRFSGSGSGTDFTLSINSVETEDFGMYFCQQSNSWPLTFGAGTKLELRR
In the case of B3, the binding result in assay [3] and in assay [5] was “binds” each time.

B4: LK-RB1-43 (antibody, human IgG4 S228P, kappa, V domains shown)
VH: EFQLQQSGPELMKPGASVKISCKASGYSFTDYNMNWVKQSNGKSLEWIGIIDPNYGTTTYNQKFKGRATLTVDQSSNTAYMQLNSLTSEDSAVYYCAREGRYSWFAYWGQGTLVTVSA
VL: DIQMTQSPGALSVSVGETVTITCRASENINSNLAWYQQKQGKSPQLLVYAATNLADGVPSRFSGSGSGTQYSLKINSLQSEDFGSYHCQHFWGTPFTFGSGTKLEIKR
Consider B4, for which the binding result in assay [4] is given as “no binding”.

B5: LK-RB1-51 (antibody, human IgG4 S228P, kappa, V domains shown)
VH: QVQIQQSGAELVKPGASVKLSCKASGYTFTEFPIHWIKQRSGQGLEWIGWFYPGSDNMNYNEKFKDKATLTADKSSSTVYMELSRLTSEDSAVYFCARHENAYFYAMDYWGQGTSVTVSS
VL: ENVLTQSPAIMSASLGEKVTMSCRASSSVNYMYWYQQKSDASPKIWIYYTSNLAPGVPARFSGSGSGNSYSLTISSMEGEDAATYYCQQFTSSPFTFGTGTKLEIKR
For the molecule B5, the binding entry in assay [4] is “no binding”.

B6: LK-RB1-54 (antibody, human IgG4 S228P, kappa, V domains shown)
VH: DVQLQESGPGLVKPSQSLSLTCSVTGYSITSGFYWNWIRQFPGNKLEWMGHISYDGTNNYNPSLKNRISITRDTSKNLFFLKLNSVTTEDTATFHCARGGYGGSYGFDYWGQGTTLTVSS
VL: ENVLTQSPAIMSASLGEKVTMSCRASSSVNYMYWYQQKSDASPKLWIYYTSNLAPGVPVRFSGSGSGNSYSLTISSMEGEDAATYYCQQFTSSPWTFGGGTKLEIKR
Turning to B6, the binding result in assay [4] is recorded as “no binding”.

B7: 15G8 (antibody, human IgG4 S228P, kappa, V domains shown)
VH: DVQLQGSGPGLVKPSETLSLTCSVTGYSITSGYYWNWIRQFPGKKLEWMGYISYDGSNNYNPSLKNRITISRDTSKNQFSLKLNSVTAADTATYYCAHGYSYYYAMDAWGQGTSVTVSS
VL: DIQMTQSPSSLSASVGDRVTITCRTSQDISNYLNWYQQKPGKAVKLLISYTSRLHSGVPSRFSGSGSGTDYTLTISSLQPEDFATYYCQQGNTLPTFGQGTKLEIKR
B7: in assay [4], the binding result is given as “no binding”.

B8: LK-RB1-42 (antibody, human IgG4 S228P, kappa, V domains shown)
VH: QVQLQQPGAELVKPGTSVKLSCKASGYSFISYWVYWVKQRPGQGLEWIGMIHPNSGSTNFNEKFRYKATLTVDKSSSTAYIQLSSLTSEDSAVYYCGRSDDGYPYHAMDSWGQGTSVTVSS
VL: DIVMTQSQKFMSTSVGDRVSVTCKASQNVGTNVAWYQQKPGQSPKALIYSASYRFSGVPDRFTGSGSGTDFTLTIGNVQSEDLAEYFCHQYKNYPLTFGGGTKLEIKR
Turning to B8, in assay [4], the binding entry is “no binding”.

B9: LK-RB1-58 (antibody, human IgG4 S228P, kappa, V domains shown)
VH: QVQLKQSGPGLVQPSQSLSITCTVSGFSLTTYGVHWVRQSPGKGLEWLGVIWRGGSTDYNAAFMSRLSITKDNSKSQVFFRMNSLQADDTARYYCAKNSLYYGSSWYFDVWGTGTTVTVSS
VL: QIVLSQSPAILSASPGEKVTMTCRASSSVSFMHWYQQKPGSSPKPWIYATSNLASGVPARFSGSGSGTSYSLTISRVEAEDAATYYCQQWSSNPPTFGGGTKLEIKR
B9: the binding entry in assay [4] is on record as “no binding”.
